Results are given in words; binding and its absence hold for the method and conditions named. Binding calls can cover weak binding; strength is not graded here.
Columns and labels:
[1] = biological target: OsMPK16-1 (Oryza sativa (indica rice, cultivar Pusa Basmati 1)) (UniProt B3VMS8); experiment: two-hybrid; Matchmaker system, yeast AH109; MAPKK fused to GAL4 activation domain (pGADT7) as prey, MAPK fused to GAL4 DNA-binding domain (pGBKT7) as bait (the only orientation for OsMKK1; vector swap for the other MAPKKs); growth on SD/-Ade/-His/-Leu/-Trp
[2] = biological target: OsMPK20-4 (Oryza sativa (indica rice, cultivar Pusa Basmati 1)) (UniProt Q0PIU4); experiment: as above
[3] = biological target: OsMPK7 (Oryza sativa (indica rice, cultivar Pusa Basmati 1)) (UniProt Q0PIU5); experiment: as above
[4] = biological target: T1, OsMPK3 (Oryza sativa (indica rice, cultivar Pusa Basmati 1)) (UniProt A2XFC8); experiment: as above
T1 sequence: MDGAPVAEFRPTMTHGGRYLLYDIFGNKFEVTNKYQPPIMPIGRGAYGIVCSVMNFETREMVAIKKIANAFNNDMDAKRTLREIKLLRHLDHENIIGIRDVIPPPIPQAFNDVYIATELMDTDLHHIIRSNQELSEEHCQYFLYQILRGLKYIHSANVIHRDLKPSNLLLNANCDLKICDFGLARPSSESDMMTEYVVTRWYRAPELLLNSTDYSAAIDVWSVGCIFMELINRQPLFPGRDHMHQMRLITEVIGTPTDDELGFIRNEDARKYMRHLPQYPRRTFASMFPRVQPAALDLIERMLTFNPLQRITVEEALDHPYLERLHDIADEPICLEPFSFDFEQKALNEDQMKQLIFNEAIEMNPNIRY

[5] = biological target: OsMPK20-3 (Oryza sativa (indica rice, cultivar Pusa Basmati 1)) (UniProt B3GCL2); experiment: as above
[6] = biological target: OsMPK14 (Oryza sativa (indica rice, cultivar Pusa Basmati 1)) (UniProt B3GCK8); experiment: as above
[7] = biological target: T2, OsMKK6 (Oryza sativa (indica rice, cultivar Pusa Basmati 1)) (UniProt Q5QN75); experiment: two-hybrid; Matchmaker system, yeast AH109; MAPKK fused to GAL4 DNA-binding domain (pGBKT7) as bait, MAPK fused to GAL4 activation domain (pGADT7) as prey; co-transformants selected on SD/-Leu/-Trp, interaction read as growth on SD/-Ade/-His/-Leu/-Trp
T2 sequence: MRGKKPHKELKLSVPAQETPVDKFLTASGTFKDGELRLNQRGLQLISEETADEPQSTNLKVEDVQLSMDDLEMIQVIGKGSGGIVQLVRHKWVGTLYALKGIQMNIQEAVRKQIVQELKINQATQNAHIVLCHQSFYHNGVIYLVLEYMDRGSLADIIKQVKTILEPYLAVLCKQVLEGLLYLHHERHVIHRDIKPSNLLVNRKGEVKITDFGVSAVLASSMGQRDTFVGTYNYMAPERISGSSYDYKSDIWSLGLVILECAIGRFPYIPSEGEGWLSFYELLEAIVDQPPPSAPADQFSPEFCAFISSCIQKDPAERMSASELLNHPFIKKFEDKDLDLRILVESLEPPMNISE

[8] = biological target: OsMKK10-2 (Oryza sativa (indica rice, cultivar Pusa Basmati 1)) (UniProt A7L4W3); experiment: as above
[9] = biological target: OsMKK3 (Oryza sativa (indica rice, cultivar Pusa Basmati 1)) (UniProt A3FK65); experiment: as above
[10] = biological target: OsMPK4 (Oryza sativa (indica rice, cultivar Pusa Basmati 1)); experiment: two-hybrid; Matchmaker system, yeast AH109; MAPKK fused to GAL4 activation domain (pGADT7) as prey, MAPK fused to GAL4 DNA-binding domain (pGBKT7) as bait (the only orientation for OsMKK1; vector swap for the other MAPKKs); growth on SD/-Ade/-His/-Leu/-Trp
[11] = biological target: OsMKK4 (Oryza sativa (indica rice, cultivar Pusa Basmati 1)) (UniProt I3RJI6); experiment: two-hybrid; Matchmaker system, yeast AH109; MAPKK fused to GAL4 DNA-binding domain (pGBKT7) as bait, MAPK fused to GAL4 activation domain (pGADT7) as prey; co-transformants selected on SD/-Leu/-Trp, interaction read as growth on SD/-Ade/-His/-Leu/-Trp

Q: What does the source list for OsMKK1 (from UniProt A5A544) (enzyme)?
A: binding [1]: no binding; binding [2]: no binding; binding [3]: no binding; binding [4]: no binding; binding [5]: no binding; binding [6]: no binding

Q: Which results are given for OsMKK3 (from UniProt A3FK65) (enzyme)?
A: binding [3]: binds; binding [6]: binds

Q: OsMKK4 (from UniProt I3RJI6) (enzyme) was tested. Which binding [4] did it give?
A: binds

Q: For “OsMKK10-2 (from UniProt A7L4W3) (enzyme)”, which binding [3] is on record?
A: binds weakly

Q: For OsMPK4 (enzyme), which binding [7] is on record?
A: binds

Q: OsMPK6 (enzyme) was tested. Which binding [7] did it give?
A: no binding

Q: With OsMPK7 (from UniProt Q0PIU5) (enzyme) as the molecule, how does the binding [8] read?
A: binds weakly

Q: What about the binding [9] of the same molecule?
A: binds

Q: For OsMPK14 (from UniProt B3GCK8) (enzyme), which binding [9] is on record?
A: binds

Q: How did the binding [7] turn out when “OsMPK16-1 (from UniProt B3VMS8) (enzyme)” was run?
A: binds

Q: OsMPK16-2 (enzyme) was tested. Which binding [7] did it give?
A: no binding

Q: For OsMPK17-1 (enzyme), which binding [7] is on record?
A: no binding

Q: With OsMPK20-2 (enzyme) as the molecule, how does the binding [7] read?
A: no binding

Q: Which binding [7] does the source give for “OsMPK20-3 (from UniProt B3GCL2) (enzyme)” here?
A: binds

Q: How did the binding [7] turn out when “OsMPK20-4 (from UniProt Q0PIU4) (enzyme)” was run?
A: binds

Q: Which binding [7] does the source give for OsMPK20-5 (enzyme) here?
A: no binding

Q: For OsMPK21-2 (enzyme), which binding [7] is on record?
A: no binding

B1: OsMKK6 (enzyme, UniProt Q5QN75 1-355)
chain: MRGKKPHKELKLSVPAQETPVDKFLTASGTFKDGELRLNQRGLQLISEETADEPQSTNLKVEDVQLSMDDLEMIQVIGKGSGGIVQLVRHKWVGTLYALKGIQMNIQEAVRKQIVQELKINQATQNAHIVLCHQSFYHNGVIYLVLEYMDRGSLADIIKQVKTILEPYLAVLCKQVLEGLLYLHHERHVIHRDIKPSNLLVNRKGEVKITDFGVSAVLASSMGQRDTFVGTYNYMAPERISGSSYDYKSDIWSLGLVILECAIGRFPYIPSEGEGWLSFYELLEAIVDQPPPSAPADQFSPEFCAFISSCIQKDPAERMSASELLNHPFIKKFEDKDLDLRILVESLEPPMNISE
Q: What does the source list for B1?
A: binding [1]: binds; binding [2]: binds; binding [10]: binds; binding [5]: binds

B2: OsMPK3 (enzyme, UniProt A2XFC8 1-369)
chain: MDGAPVAEFRPTMTHGGRYLLYDIFGNKFEVTNKYQPPIMPIGRGAYGIVCSVMNFETREMVAIKKIANAFNNDMDAKRTLREIKLLRHLDHENIIGIRDVIPPPIPQAFNDVYIATELMDTDLHHIIRSNQELSEEHCQYFLYQILRGLKYIHSANVIHRDLKPSNLLLNANCDLKICDFGLARPSSESDMMTEYVVTRWYRAPELLLNSTDYSAAIDVWSVGCIFMELINRQPLFPGRDHMHQMRLITEVIGTPTDDELGFIRNEDARKYMRHLPQYPRRTFASMFPRVQPAALDLIERMLTFNPLQRITVEEALDHPYLERLHDIADEPICLEPFSFDFEQKALNEDQMKQLIFNEAIEMNPNIRY
Q: With B2 as the molecule, how does the binding [11] read?
A: binds

Source: paper PMC3667834
